“Also recorded” adds a separate entry of the source. Where two headings read alike, the source gives them in different places.
What was measured:
[1] = Removal of sulfide from high H2S water, two oxidation-clarification steps (Example 17)
[2] = Experimental: Hydrogen peroxide is an inexpensive oxidant for H2S removal, but is slow acting relative to several other oxidants. Shortening the reaction time or contact time required in a water treatment process reduces the volume of contact basins or increases the throughput of a treatment process such as that described in Example 17.
A portion of the 80 mg/L H2S water was treated by mixing into it a 17% wt/wt solution of hydrogen peroxide such that the molar ratio of hydrogen peroxide to sulfide was about 5.7:1. Hydrogen peroxide was added in excess such that it was not a limiting reagent in the oxidation reaction. The ORP and pH of the water was monitored to track the oxidation rate of H2S. FIG. 3 depicts the progression of ORP and pH over time during oxidation.
A second portion of the 80 mg/L H2S water was treated by mixing into it a 17% wt/wt solution of hydrogen peroxide such that the molar ratio of hydrogen peroxide to sulfide was about 5.7:1. A small portion of muriatic acid (about 34% hydrochloric acid solution) was added with the hydrogen peroxide to slightly lower the pH to between 6.5 and 7.0 thereby converting at least a portion of the NaHS to H2S and accelerate the reaction rate. FIG. 4 depicts the progression of ORP and pH over time during oxidation.

[3] = H2S reduction at crude oil rail depot (Example 8); conditions: about 40 ppm oxidant
[4] = Oxidation of H2S in production water (Example 11, HACH methylene blue method)
[5] = Gel breaking: depolymerization and break down of guar gum (viscosity); conditions: guar mixture 10 g/L, 35-40° C.
[6] = H2S removal from production well fluids and gas at heater treater and gunbarrel (Example 7)
[7] = second treatment, about 15 mg/L oxidant, crude oil exiting heater treaters

| Compound | H2S (as S^2−) in supernatant ([1]; first step: 17% hydrogen peroxide, 1.9:1 molar oxidant to sulfide, 10 minutes, aluminum coagulant and anionic polymer, initial 390 mg/L) | pH of supernatant ([1]; first step: hydrogen peroxide 1.9:1, then coagulant and polymer) | hydrogen sulfide in the mixture after oxidation ([2]; hydrogen peroxide 5.7:1, no acid) | hydrogen sulfide in the mixture after oxidation ([2]; hydrogen peroxide 5.7:1 with muriatic acid) | hydrogen sulfide concentration in the liquid phase ([3]; crude oil with about 20-30 ppm H2S) | vapor phase potential (e.g., in cargo head space) of hydrogen sulfide ([3]; crude oil, at 140° F.) | Sulfate ([1]; after second step (sodium peracetate 1.6:1), untreated 1000 mg/L) [mg/L] | H2S in supernatant ([1]; second step on hydrogen peroxide-treated supernatant: 2.1% sodium peracetate solution, 1.6:1 molar oxidant to sulfide, 10 minutes, coagulant and polymer) | pH of supernatant ([1]; second step: sodium peracetate 1.6:1 after hydrogen peroxide step) | residual oxidant ([4]; after total dose 360 mg/L sodium peracetate) | final sulfide concentration ([4]; total dose 360 mg/L (3.68 mM) sodium peracetate, initial sulfide 150 mg/L, pH 6.7) [mg/L] | pH after treatment ([4]; total dose 360 mg/L sodium peracetate, initial pH 6.7) | Viscosity at 2 Hour Contact Time ([5]; oxidant conc. 65 mg/L) | Viscosity at 2 Hour Contact Time ([5]; oxidant conc. 220 mg/L) | Viscosity at 2 Hour Contact Time ([5]; oxidant conc. 440 mg/L) | hydrogen sulfide concentration in the liquid phase ([6]; first treatment, about 50 mg/L oxidant in liquid phase entering heater treaters) [ppm] | hydrogen sulfide concentration in the gas, vapor phase (gas phase) ([6]; first treatment, about 50 mg/L oxidant in liquid phase entering heater treaters, fluids about 30 mg/L H2S) | hydrogen sulfide concentration in the gas, vapor phase [6, 7] | hydrogen sulfide concentration in the liquid phase [6, 7] [ppm] |
| --- | --- | --- | --- | --- | --- | --- | --- | --- | --- | --- | --- | --- | --- | --- | --- | --- | --- | --- | --- |
| OO [hydrogen peroxide] | about 60 mg/L | 7.6 | No detectable | No detectable | – | – | – | – | – | – | – | – | – | – | – | – | – | – | – |
| sodium peracetate [sodium peracetate oxidant solution] | – | – | – | – | less than 5 ppm | less than 70 ppm | 1000 | less than 5 mg/L as S′ | 6.9 | no residual oxidant | 58 | 7.2 | no visible effect on viscosity; also recorded: retained its original viscosity; also recorded: same as initial | small reduction in viscosity; also recorded: slightly reduced | significantly reduce the viscosity; also recorded: rapid loss of viscosity; also recorded: very reduced | ≤ 2 | less than 70 ppm | less than 10 ppm | ≤ 0.1 |

Source: US10941063B2 (priority 2015, dated 2021)
